NP40-soluble protein abundance data for 15 targets are collected here from the supplement of paper PMC6411743.

Amino acid sequences for entries named in this document (tags omitted). A change or cut given only in a name is not applied to a line headed by its entry.
UniProt O43674, whole entry: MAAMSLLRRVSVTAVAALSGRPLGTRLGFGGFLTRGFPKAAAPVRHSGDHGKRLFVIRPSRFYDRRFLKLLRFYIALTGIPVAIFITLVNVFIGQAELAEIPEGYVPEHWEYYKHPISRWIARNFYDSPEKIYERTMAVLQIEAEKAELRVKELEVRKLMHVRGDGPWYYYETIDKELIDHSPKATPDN
UniProt Q9H4A3: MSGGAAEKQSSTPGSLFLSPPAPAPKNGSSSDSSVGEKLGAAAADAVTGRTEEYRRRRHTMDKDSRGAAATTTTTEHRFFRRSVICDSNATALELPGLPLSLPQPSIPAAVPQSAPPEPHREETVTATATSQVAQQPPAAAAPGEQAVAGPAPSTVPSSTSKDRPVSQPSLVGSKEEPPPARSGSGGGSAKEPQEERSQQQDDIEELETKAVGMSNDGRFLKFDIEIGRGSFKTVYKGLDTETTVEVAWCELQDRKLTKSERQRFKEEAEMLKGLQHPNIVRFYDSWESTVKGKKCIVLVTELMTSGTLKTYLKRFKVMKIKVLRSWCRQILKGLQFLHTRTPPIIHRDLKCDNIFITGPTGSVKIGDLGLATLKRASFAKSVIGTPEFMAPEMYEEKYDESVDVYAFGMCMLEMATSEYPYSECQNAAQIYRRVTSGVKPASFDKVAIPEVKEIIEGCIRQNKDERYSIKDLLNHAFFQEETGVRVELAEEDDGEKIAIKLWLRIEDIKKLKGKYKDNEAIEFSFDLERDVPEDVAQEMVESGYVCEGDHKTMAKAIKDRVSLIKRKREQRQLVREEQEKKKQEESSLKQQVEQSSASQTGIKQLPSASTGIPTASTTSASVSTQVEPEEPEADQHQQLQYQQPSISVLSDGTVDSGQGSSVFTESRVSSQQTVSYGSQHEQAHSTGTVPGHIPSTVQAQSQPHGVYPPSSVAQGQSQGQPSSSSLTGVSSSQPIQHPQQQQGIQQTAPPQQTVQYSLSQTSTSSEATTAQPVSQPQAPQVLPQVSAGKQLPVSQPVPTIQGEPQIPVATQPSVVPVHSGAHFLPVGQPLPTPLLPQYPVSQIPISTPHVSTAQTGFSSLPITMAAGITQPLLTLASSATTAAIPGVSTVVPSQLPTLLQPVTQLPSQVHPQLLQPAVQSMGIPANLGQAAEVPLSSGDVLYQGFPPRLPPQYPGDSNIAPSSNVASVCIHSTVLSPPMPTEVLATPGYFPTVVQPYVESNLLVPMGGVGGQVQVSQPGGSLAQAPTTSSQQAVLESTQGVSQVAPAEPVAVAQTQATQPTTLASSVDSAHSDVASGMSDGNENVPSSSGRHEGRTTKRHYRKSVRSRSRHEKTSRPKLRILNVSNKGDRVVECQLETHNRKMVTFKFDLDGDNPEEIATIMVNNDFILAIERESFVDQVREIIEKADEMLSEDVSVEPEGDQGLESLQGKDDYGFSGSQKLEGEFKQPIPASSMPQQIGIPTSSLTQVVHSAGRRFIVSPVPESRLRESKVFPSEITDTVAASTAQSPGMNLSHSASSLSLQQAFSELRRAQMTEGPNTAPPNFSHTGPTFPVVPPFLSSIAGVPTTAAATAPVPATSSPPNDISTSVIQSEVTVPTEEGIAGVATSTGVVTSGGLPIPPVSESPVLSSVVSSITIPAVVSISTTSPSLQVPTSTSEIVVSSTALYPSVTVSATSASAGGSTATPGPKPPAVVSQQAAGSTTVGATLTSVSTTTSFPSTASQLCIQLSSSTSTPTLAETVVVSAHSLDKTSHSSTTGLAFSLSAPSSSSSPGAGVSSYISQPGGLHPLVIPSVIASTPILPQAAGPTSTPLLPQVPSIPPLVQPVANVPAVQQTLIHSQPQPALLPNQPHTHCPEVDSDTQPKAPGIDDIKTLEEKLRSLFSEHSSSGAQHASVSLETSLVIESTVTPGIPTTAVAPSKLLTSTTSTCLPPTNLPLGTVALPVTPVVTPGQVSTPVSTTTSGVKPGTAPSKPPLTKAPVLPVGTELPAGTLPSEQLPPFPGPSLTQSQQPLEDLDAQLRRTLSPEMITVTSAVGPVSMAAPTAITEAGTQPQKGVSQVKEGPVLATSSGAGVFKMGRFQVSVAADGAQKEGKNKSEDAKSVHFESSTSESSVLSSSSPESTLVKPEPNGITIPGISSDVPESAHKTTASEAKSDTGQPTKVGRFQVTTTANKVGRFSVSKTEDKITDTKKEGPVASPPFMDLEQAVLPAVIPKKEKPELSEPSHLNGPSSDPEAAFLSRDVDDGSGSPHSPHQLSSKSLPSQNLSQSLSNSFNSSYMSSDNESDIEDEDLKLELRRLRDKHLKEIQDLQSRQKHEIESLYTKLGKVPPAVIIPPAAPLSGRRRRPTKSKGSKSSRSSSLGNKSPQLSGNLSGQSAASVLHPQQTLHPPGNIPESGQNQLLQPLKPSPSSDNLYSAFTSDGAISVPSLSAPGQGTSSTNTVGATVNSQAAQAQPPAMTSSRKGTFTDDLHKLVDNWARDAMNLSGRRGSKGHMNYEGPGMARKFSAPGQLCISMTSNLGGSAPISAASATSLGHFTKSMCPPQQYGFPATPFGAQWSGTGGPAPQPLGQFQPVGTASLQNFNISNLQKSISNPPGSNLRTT
UniProt Q9H2H9: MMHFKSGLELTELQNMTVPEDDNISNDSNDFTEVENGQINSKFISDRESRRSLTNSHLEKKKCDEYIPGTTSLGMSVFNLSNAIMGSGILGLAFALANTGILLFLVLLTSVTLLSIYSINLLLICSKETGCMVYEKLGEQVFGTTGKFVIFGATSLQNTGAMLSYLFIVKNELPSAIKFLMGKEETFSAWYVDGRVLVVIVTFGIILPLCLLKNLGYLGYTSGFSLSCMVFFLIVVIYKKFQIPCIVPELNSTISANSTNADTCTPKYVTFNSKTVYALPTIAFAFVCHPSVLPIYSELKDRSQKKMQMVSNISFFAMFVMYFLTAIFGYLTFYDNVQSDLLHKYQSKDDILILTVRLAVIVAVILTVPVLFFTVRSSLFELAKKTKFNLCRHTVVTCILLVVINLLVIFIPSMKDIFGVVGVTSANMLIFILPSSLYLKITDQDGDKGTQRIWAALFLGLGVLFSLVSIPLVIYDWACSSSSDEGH
UniProt Q96A26: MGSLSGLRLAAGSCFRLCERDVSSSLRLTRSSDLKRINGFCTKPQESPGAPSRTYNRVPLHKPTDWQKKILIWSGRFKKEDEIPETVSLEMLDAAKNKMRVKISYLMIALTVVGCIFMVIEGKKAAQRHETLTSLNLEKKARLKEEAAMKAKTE
UniProt P11802: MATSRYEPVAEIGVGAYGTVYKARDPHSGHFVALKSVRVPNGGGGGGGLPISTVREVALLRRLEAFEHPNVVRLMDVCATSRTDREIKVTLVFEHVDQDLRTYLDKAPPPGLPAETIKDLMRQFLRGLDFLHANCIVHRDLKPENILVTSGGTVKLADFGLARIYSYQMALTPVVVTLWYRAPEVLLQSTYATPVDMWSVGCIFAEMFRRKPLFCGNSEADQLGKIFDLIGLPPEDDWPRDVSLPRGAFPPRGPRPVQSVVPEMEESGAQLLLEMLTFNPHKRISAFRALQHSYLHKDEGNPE
UniProt O95208: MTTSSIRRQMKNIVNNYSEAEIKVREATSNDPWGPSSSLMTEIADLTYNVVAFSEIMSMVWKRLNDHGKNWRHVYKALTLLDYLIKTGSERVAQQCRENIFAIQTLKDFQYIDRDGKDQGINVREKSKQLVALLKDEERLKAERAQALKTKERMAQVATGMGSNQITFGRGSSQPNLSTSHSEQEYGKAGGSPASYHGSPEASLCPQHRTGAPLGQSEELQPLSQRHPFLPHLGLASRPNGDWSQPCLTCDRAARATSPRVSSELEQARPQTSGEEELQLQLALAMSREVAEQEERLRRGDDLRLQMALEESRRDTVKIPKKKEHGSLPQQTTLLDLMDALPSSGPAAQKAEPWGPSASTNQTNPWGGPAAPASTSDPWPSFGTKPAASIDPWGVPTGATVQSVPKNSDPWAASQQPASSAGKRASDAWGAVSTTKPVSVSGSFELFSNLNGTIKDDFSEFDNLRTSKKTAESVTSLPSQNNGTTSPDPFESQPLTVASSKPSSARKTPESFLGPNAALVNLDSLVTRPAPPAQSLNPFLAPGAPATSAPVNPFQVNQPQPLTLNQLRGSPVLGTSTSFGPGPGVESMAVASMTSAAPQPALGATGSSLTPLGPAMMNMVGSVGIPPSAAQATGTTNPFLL
UniProt P61916: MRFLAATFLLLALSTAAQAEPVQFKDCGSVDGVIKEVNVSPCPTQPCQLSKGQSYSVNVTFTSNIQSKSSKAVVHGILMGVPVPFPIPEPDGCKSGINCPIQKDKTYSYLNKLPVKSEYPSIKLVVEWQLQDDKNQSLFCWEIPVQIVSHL
UniProt Q4G0X4: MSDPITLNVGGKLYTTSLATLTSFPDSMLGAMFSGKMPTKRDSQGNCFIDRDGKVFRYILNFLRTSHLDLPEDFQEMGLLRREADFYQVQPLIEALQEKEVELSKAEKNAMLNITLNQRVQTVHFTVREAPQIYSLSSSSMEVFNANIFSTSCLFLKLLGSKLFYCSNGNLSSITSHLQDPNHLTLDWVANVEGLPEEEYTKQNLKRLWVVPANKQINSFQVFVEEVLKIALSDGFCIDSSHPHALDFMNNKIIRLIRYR
UniProt P98171: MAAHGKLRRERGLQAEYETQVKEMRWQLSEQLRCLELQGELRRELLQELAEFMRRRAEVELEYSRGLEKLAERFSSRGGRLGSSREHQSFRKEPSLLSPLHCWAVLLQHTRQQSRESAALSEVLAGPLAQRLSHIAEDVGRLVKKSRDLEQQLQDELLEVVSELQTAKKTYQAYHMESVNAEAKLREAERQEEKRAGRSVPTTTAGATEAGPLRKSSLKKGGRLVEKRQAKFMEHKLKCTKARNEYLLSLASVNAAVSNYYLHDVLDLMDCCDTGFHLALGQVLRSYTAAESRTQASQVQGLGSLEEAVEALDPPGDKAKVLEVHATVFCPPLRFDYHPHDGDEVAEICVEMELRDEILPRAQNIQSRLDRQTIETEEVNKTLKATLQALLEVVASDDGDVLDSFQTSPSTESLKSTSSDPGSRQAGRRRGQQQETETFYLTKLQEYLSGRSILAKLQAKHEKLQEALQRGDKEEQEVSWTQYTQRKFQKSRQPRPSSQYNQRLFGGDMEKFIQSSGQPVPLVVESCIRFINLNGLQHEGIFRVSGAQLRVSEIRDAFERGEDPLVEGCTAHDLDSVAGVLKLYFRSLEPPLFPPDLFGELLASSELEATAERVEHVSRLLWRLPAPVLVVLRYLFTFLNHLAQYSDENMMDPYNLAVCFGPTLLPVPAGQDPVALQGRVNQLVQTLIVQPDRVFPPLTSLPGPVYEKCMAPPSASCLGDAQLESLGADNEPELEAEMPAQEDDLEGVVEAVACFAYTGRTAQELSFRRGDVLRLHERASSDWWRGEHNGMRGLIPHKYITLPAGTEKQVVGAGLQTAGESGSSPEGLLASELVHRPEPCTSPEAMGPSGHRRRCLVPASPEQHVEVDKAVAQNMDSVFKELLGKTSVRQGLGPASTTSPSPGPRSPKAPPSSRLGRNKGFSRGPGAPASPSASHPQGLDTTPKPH
UniProt Q15031: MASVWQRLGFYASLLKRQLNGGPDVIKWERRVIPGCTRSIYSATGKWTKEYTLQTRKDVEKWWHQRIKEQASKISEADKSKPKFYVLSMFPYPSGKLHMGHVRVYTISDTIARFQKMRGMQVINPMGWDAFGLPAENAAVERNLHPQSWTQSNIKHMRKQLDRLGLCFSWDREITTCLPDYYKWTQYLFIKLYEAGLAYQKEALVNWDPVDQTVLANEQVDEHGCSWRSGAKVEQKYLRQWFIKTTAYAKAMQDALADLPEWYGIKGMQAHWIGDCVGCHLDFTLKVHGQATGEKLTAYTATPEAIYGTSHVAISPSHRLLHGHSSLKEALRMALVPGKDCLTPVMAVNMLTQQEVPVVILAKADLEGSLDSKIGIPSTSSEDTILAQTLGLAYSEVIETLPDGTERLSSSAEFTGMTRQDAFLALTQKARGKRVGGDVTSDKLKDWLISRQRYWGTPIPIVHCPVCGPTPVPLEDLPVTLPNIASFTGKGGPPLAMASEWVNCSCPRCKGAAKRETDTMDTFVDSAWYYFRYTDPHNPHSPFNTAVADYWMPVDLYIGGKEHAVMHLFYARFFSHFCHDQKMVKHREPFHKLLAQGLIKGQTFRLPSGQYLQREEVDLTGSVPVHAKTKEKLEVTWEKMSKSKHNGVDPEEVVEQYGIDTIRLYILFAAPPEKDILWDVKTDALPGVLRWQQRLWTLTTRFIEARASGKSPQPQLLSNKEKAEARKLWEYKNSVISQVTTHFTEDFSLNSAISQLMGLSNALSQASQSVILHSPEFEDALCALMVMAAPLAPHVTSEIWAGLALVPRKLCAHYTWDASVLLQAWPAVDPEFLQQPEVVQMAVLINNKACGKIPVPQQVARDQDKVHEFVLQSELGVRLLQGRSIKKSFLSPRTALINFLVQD

Compound in the experiment: Nc1ncnc2c1ncn2[C@@H]1O[C@H](COP(=O)(O)OP(=O)(O)NP(=O)(O)O)[C@@H](O)[C@H]1O [adenylyl imidodiphosphate]
Briefly: NP40-soluble protein abundance relative to vehicle (solubility fold change) (ratio); higher = more soluble protein in presence of AMP-PNP. The procedure, abridged:
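Each value is a fold change relative to the detergent-processed vehicle, calculated per replicate from vsn-normalised intensities. Jurkat crude lysate received eight concentrations (0.1 to 10 mM) for 10 min at room temperature and 3 min at 37 °C, then was solubilised in 0.8% NP40 with benzonase (60 min, 4 °C). The ultracentrifuged supernatant was TMT-labelled and run by LC-MS/MS in three independent experiments.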

± gives the standard deviation of the averaged measurements. This is a selection; strong and weak results do not stand in their true shares.

As to “E7EWP0 and related entries (UniProt O43674)”, the NP40-soluble protein abundance (concentration: 1mM) was 0.945 ± 0.027; the NP40-soluble protein abundance (concentration: 2mM) stood at 0.922 ± 0.016; the NP40-soluble protein abundance (concentration: 4mM) was determined as 0.998 ± 0.076; the NP40-soluble protein abundance (concentration: 6mM) is 1.08 ± 0.14; the NP40-soluble protein abundance (concentration: 8mM) came out at 1.13 ± 0.076; the NP40-soluble protein abundance (concentration: 10mM) was found to be 1.09 ± 0.086.
Regarding “F5GXG6 and related entries (UniProt Q13889)”, the NP40-soluble protein abundance by setting is: (concentration: 1mM) 0.979 ± 0.024; (concentration: 2mM) 0.988 ± 0.032; (concentration: 4mM) 1.02 ± 0.045; (concentration: 6mM) 1.04 ± 0.053; (concentration: 8mM) 1.04 ± 0.017; (concentration: 10mM) 1.06 ± 0.023.
Consider “F5GWT4 and related entries (UniProt Q9H4A3)”, for which the NP40-soluble protein abundance is 1.04 ± 0.044 (concentration: 1mM); 1.07 ± 0.03 (concentration: 2mM); 1.04 ± 0.027 (concentration: 4mM); 1.03 ± 0.044 (concentration: 6mM); 1.02 ± 0.039 (concentration: 8mM); 1.07 ± 0.056 (concentration: 10mM).
In the case of “F8VX04 and related entries (UniProt Q9H2H9)”, the NP40-soluble protein abundance is, setting by setting: (concentration: 1mM) 1.14 ± 0.1; (concentration: 2mM) 1.36 ± 0.19; (concentration: 4mM) 1.1 ± 0.051; (concentration: 6mM) 1.06 ± 0.094; (concentration: 8mM) 1.01 ± 0.087; (concentration: 10mM) 1.13 ± 0.19.
Take “F8W7Q4 and related entries (UniProt Q96A26)”: the NP40-soluble protein abundance came to 0.97 ± 0.045 (concentration: 1mM); 1.02 ± 0.064 (concentration: 2mM); 0.956 ± 0.078 (concentration: 4mM); 1.03 ± 0.056 (concentration: 6mM); 0.995 ± 0.016 (concentration: 8mM); 0.997 ± 0.025 (concentration: 10mM).
With “E7ESL0 and related entries (UniProt Q9NWU5)”, the NP40-soluble protein abundance is 0.989 ± 0.076 (concentration: 1mM); 0.962 ± 0.1 (concentration: 2mM); 0.948 ± 0.11 (concentration: 4mM); 0.932 ± 0.14 (concentration: 6mM); 0.945 ± 0.11 (concentration: 8mM); 0.949 ± 0.16 (concentration: 10mM).
For the target “E7EXA6 and related entries (UniProt Q8WVB6)”, the NP40-soluble protein abundance is, setting by setting: (concentration: 1mM) 0.983 ± 0.021; (concentration: 2mM) 0.959 ± 0.046; (concentration: 4mM) 1 ± 0.033; (concentration: 6mM) 1.01 ± 0.028; (concentration: 8mM) 1 ± 0.035; (concentration: 10mM) 1 ± 0.062.
Turning to “F8VTV8 and related entries (UniProt P11802)”, the NP40-soluble protein abundance by setting is: (concentration: 1mM) 0.979 ± 0.047; (concentration: 2mM) 0.987 ± 0.033; (concentration: 4mM) 0.9901 ± 0.0058; (concentration: 6mM) 0.976 ± 0.043; (concentration: 8mM) 1 ± 0.029; (concentration: 10mM) 0.967 ± 0.062.
As to “E9PBC1 and related entries (UniProt O95208)”, the NP40-soluble protein abundance came to 1.05 ± 0.034 (concentration: 1mM); 1.041 ± 0.0081 (concentration: 2mM); 1.02 ± 0.02 (concentration: 4mM); 0.998 ± 0.052 (concentration: 6mM); 0.992 ± 0.014 (concentration: 8mM); 1 ± 0.021 (concentration: 10mM).
For “E7EMS2 and related entries (UniProt P61916)”, the NP40-soluble protein abundance runs as follows: (concentration: 1mM) 0.99 ± 0.017; (concentration: 2mM) 1.06 ± 0.073; (concentration: 4mM) 0.937 ± 0.043; (concentration: 6mM) 0.992 ± 0.011; (concentration: 8mM) 0.929 ± 0.03; (concentration: 10mM) 0.979 ± 0.061.
On to “E9PJJ5 and related entries (UniProt Q4G0X4)”, for which the NP40-soluble protein abundance is 1 ± 0.012 (concentration: 1mM); 0.998 ± 0.037 (concentration: 2mM); 0.981 ± 0.02 (concentration: 4mM); 0.976 ± 0.042 (concentration: 6mM); 0.976 ± 0.029 (concentration: 8mM); 0.964 ± 0.02 (concentration: 10mM).
In the case of “F5H226 and related entries (UniProt P08397)”, the NP40-soluble protein abundance (concentration: 1mM) is 1.03 ± 0.023; the NP40-soluble protein abundance (concentration: 2mM) was found to be 0.987 ± 0.046; the NP40-soluble protein abundance (concentration: 4mM) was determined as 1 ± 0.032; the NP40-soluble protein abundance (concentration: 6mM) turned out to be 0.981 ± 0.02; the NP40-soluble protein abundance (concentration: 8mM) is 1.02 ± 0.014; the NP40-soluble protein abundance (concentration: 10mM) is 0.98 ± 0.062.
As for “E7EQN5 and related entries (UniProt P98171)”, the NP40-soluble protein abundance turned out to be 0.999 ± 0.013 (concentration: 1mM); 0.997 ± 0.05 (concentration: 2mM); 1.02 ± 0.032 (concentration: 4mM); 1.03 ± 0.077 (concentration: 6mM); 1.01 ± 0.056 (concentration: 8mM); 1.04 ± 0.023 (concentration: 10mM).
Take “E7ETU7 and related entries (UniProt P09001)”: the NP40-soluble protein abundance (concentration: 1mM) worked out at 0.971 ± 0.12; the NP40-soluble protein abundance (concentration: 2mM) was determined as 0.961 ± 0.12; the NP40-soluble protein abundance (concentration: 4mM) amounted to 0.961 ± 0.14; the NP40-soluble protein abundance (concentration: 6mM) was 0.927 ± 0.24; the NP40-soluble protein abundance (concentration: 8mM) amounted to 0.938 ± 0.2; the NP40-soluble protein abundance (concentration: 10mM) is 0.903 ± 0.21.
Turning to “E9PHM2 and related entries (UniProt Q15031)”, the NP40-soluble protein abundance came to 0.984 ± 0.024 (concentration: 1mM); 0.916 ± 0.069 (concentration: 2mM); 0.975 ± 0.021 (concentration: 4mM); 0.97 ± 0.032 (concentration: 6mM); 0.978 ± 0.019 (concentration: 8mM); 0.954 ± 0.027 (concentration: 10mM).
